Measurements from publication PMC10163288.
Some of the results follow.

B1: il10ra_site1_normal_mot_HHH_b2_07569_000000265_0001_38_56_H_._HHH_b1_00906_af2_0001_0000300009_0000001_0 (protein)
chain: SSSSDLEEEVEELLEELKKAKTQEEFAELALRVLRVALESQDPELVQEVWEVIKEVFKRLSSSSS
B2: il10ra_site1_normal_mot_HHH_b1_05672_af2_000000246_0001_1_19_H_._HHH_b2_02879_af2_0001_0000300011_0000002_0 (protein)
chain: SSSSDEEQRVAELLLRVVRLLYEGNPEEAEEVLEEARRLAEELGDEELRRYVEIAENFVRSSSSS
B3: il10ra_site1_normal_mot_8756ee2cf497b5429c717dfc0c0bcfd6_0001_000000186_0001_1_13_H_._HHH_b1_01230_0001_0000200009_0000001_0_1_af2pred_dldesign_0_af2pred (protein)
chain: SSSSSSQEVVDLLKEAAELIYEGKLEEAKEVLEKARELAEKLNDKVALAAIDYLLSQLEKSSSSS
B4: il10ra_site1_sap_24_mot_HHH_b2_05797_000000226_0001_1_19_H_._HHH_b1_08678_0001_0000400027_0000001_0_0001 (protein)
chain: SSSSNRSQEIYELLREAAELHHEGDPEEARKVLEEAEELAEEAGDMVMLMVIRWMLRRVNSSSSS
B5: il10ra_site1_normal_mot_e1dd4851c59bc1cdde016f988f6856bd_0001_1_000000200_0001_16_31_H_._HEEHE_2159_0002_0000200020_0000001_0_af2pred_0001 (protein)
chain: SDEELAALAIRLVAEKAGVPSVEVTTSNNEIHVTLEGDDRAVERAERQIRFLSEAANVPVTIEIE
B6: il10ra_site1_sap_24_mot_HHH_b1_05826_af2_000000294_0001_1_18_H_._HHH_b1_05303_0001_0000100002_0000001_0_0001_af2pred_0001 (protein)
chain: SSSSDEKKAFRLYIEAFLALEKGNPEEARELLEEALKIAEELGDEALVRAIRHLLELVERKSSSS
B7: il10ra_site1_normal_mot_HHH_b1_01821_000000158_0001_23_39_H_._HHH_b2_01117_af2_0001_0000100001_0000002_0 (protein)
chain: SSSSSEEEERVEELIKELEELLRRGDFERASRVAQEALRLAFRLNNPELLQAIWRVFKEGSSSSS
B8: il10ra_site1_normal_mot_HHH_b1_05357_000000034_0001_23_39_H_._HHH_b2_02453_0001_0000200008_0000001_0_af2pred_0001 (protein)
chain: SSSSDVEEELEELLEEAKRIEDLHRANYVLARAFALASRRKDPELEEEVKEAAKEITERGSSSSS
B9: il10ra_site1_sap_22_mot_HHH_b2_04679_000000194_0001_21_38_H_._HHH_b1_05937_af2_0001_0000100001_0000001_0_0001_af2pred_0001 (protein)
chain: SSSSSEEEAVKLLARAIRHLIKLGDEEAAKLALEILERLARQLNDEEAEEIVEELQKLLESSSSS
B10: il10ra_site1_normal_mot_HHH_b2_06255_000000043_0001_1_20_H_._HHH_b2_01548_af2_0001_0000300011_0000001_0 (protein)
chain: SSSSSSEEEVKELLEEARELHERGNPDEAFKVLRRAIEIAAENNDPELQKLVIRVSRELVSSSSS
B11: il10ra_site1_sap_21_mot_HHH_b2_07579_000000275_0001_1_19_H_._HHH_b2_05428_0001_0000300025_0000001_0_0001 (protein)
chain: SSSSTLAQEVAELLRRVVELDNEGDKEEAERLLEEAKELAEEANSDVLRIQVEYLERLLNSSSSS
B12: il10ra_site1_normal_mot_HHH_b2_01649_af2_000000191_0001_40_56_H_._HHH_b2_05746_0001_0000300010_0000001_0 (protein)
chain: SSSSSSSEVSLRAAKVALEALLELGDEEMFEVALRFHESLLKDAGNPELAEELRRFAEELSSSSS
B13: il10ra_site1_sap_26_mot_HHH_b2_08231_af2_000000290_0001_1_18_H_._HHH_b1_03552_af2_0001_0000800016_0000002_0_0001 (protein)
chain: SSSSSEEQRELFELLRRVAELDHEGNPEEAREVLKEAQELAEELGNDVARMQIEYLQKHLSSSSS
B14: il10ra_site1_normal_mot_HHH_b1_02080_af2_000000254_0001_23_39_H_._HHH_b1_03859_0001_0000800012_0000001_0_af2pred_dldesign_0_af2pred (protein)
chain: SSSSDEALLQRARELHLRASAAIAAGNKEEAAKLLAELEKLAEETDDPDIKRALDYLKAVASSSS
B15: il10ra_site1_sap_15_mot_HHH_b1_01307_000000115_0001_1_18_H_._HHH_b2_08110_0001_0000100001_0000001_0_0001 (protein)
chain: SSSSDEKWEEFQRILEKAAELKNSGNPEEAKKLLEELEEELEELGNWIALRAARHLLRAISSSSS
B16: il10ra_site1_sap_17_mot_HHH_b1_04514_000000156_0001_1_18_H_._HHH_b2_07389_af2_0001_0000100005_0000001_0_0001 (protein)
chain: SSSSDFEEYIEMTRMFAEALARAGDPEAAKKMIKAAIDMARRGNNEELLEELEELLERLRSSSSS
B17: il10ra_site1_sap_24_mot_HHH_b1_05099_000000057_0001_40_58_H_._HHH_b1_05528_0001_0000100006_0000001_0_0001_af2pred_0001 (protein)
chain: SSSSSSDVEEAVRKLLHAAKQISDEEALKLALRDAERIARANNDEELEELVEKVKEELSSSSSSS
B18: il10ra_site1_normal_mot_HHH_b2_00984_000000042_0001_1_20_H_._HHH_b1_00336_0001_0000500031_0000002_0 (protein)
chain: SSSSSEEEVEELLREAEELLENGNPQEAIEVLARASQIAHRASNEELLQKVWELIKKIAEASSSS
B19: il10ra_site1_normal_mot_HHH_b2_01447_af2_000000258_0001_1_20_H_._HHH_b2_02600_af2_0001_0000100009_0000002_0_af2pred_0001 (protein)
chain: SSSSSTEEVMELARRAAELLNEGDPEEAQRVAEEAVELAEELGNFALIASARFVLEIIERSSSSS
B20: il10ra_site1_sap_18_mot_HHH_b1_00999_000000080_0001_41_55_H_._HHH_b1_01900_0001_0000200017_0000001_0_0001 (protein)
chain: DEEVLEEVEKEAGGDPERILELLLEIAEERGRFDPQQLKAAERFIRAAIELNTPSVELMLRALAA
B21: il10ra_site1_normal_mot_HHH_b1_06816_000000239_0001_1_19_H_._HHH_b1_07754_0001_0000100002_0000001_1 (protein)
chain: SSSSSSDREEEAQELLEELKEIPDPDERFKLAREAIELAVEAGDPELARRISRLAAELSSSSSSS
B22: il10ra_site1_normal_mot_HHH_b1_00999_000000080_0001_41_55_H_._HHH_b2_02899_0001_0000400029_0000001_0 (protein)
chain: SSSSDLEEEVEELLEEAERIEDPREATELLQEATHLALRAQDPELLKLVWEVVQEIGKLLSSSSS
B23: il10ra_site1_normal_mot_2c1a291787c6f40772924d4e9068d803_0001_af2_000000222_0001_34_48_H_._HHH_b1_08635_0001_0000300024_0000002_0_af2pred_dldesign_0_af2pred (protein)
chain: SSSSSSEVEALLKQLAAAASKVSPEKAAKLYDTMVEVHRLLQAGKPEEALALAQAALAEVSSSSS
B24: il10ra_site1_normal_mot_HHH_b1_02997_000000220_0001_39_52_H_._HHH_b1_02223_af2_0001_0000200006_0000002_0 (protein)
chain: SSSSSNEAEEVYELIREALQLLHEGDEEEAKEVLEEARELAEQLGNVNALWNVRYVLRQLSSSSS
B25: il10ra_site1_normal_mot_HHH_b2_04679_000000194_0001_21_38_H_._HHH_b2_02732_0001_0000500047_0000001_0 (protein)
chain: SSSSSDEEVRERVEELLERLEKVDPQEAYELLREAIELASENNDPELQREILRALREWLTSSSSS
B26: il10ra_site1_sap_21_mot_10a13a28c4ba12e342f6adf7edc157b2_0001_1_000000237_0001_51_65_H_._HHH_b2_02475_0001_0000100002_0000001_0_0001 (protein)
chain: SSSSDQERAVELMLKRLKHLVKQRNEEYFRQAVRFIRALIEWLGDPRLEELLEEIEEKFEESSSS
B27: il10ra_site1_normal_mot_HHH_b2_00837_af2_000000287_0001_40_54_H_._HHH_b2_01069_af2_0001_0000200019_0000002_0 (protein)
chain: SSSSDEEERIKKLIEEVEELLEEGDPEEALELLFEATHFALELGNAELLREIWELVRSLKSSSSS
B28: il10ra_site1_normal_mot_b26a303360aa2756ef5b79665ce52f45_0001_000000179_0001_1_11_H_._HHH_b1_01865_0001_0000100011_0000002_1 (protein)
chain: SSSSSSLEEIYKLIREAAELLYEGNPEEAREVAEEAEELAERANNPVFLFSIRHLLRDINSSSSS
B29: il10ra_site1_normal_mot_b26a303360aa2756ef5b79665ce52f45_0001_000000179_0001_1_11_H_._HHH_b1_07761_0001_0000200034_0000001_0 (protein)
chain: SSSSSEESQELYELSRRAAELLYEGNPEEAEELLEEAERLAERNNNFVFLFNIRHLLRDVKSSSS
B30: il10ra_site1_normal_mot_HHH_b2_07440_af2_000000021_0001_1_18_H_._HHH_b1_07357_0001_0000400038_0000002_0 (protein)
chain: SSSSDEILQEILELSLEAFRLALRGNPEEAREVLEEALELAREEGNEQLVRVLEDLLRALSSSSS
B31: il10ra_site1_normal_mot_2c1a291787c6f40772924d4e9068d803_0001_af2_000000187_0001_34_48_H_._HHH_b2_05273_0001_0000600026_0000001_0_af2pred_0001 (protein)
chain: SSSSDKHEVLQLTARAAALADREGDKETVKRLFELLLELYVRGDPELREELEELAEELLGSSSSS
B32: il10ra_site1_sap_16_mot_HHH_b1_06978_af2_000000172_0001_1_16_H_._HHH_b1_07175_af2_0001_0000600013_0000001_0_0001 (protein)
chain: SSSSDRYEEVKRVIERAIELLREGNPEEAERLLEELAEKLEELGDWSALHAVEHLARVVGSSSSS
B33: il10ra_site1_normal_mot_HHH_b1_06789_af2_000000041_0001_1_20_H_._HHH_b2_04736_0001_0000300026_0000001_0_af2pred_0001 (protein)
chain: SSSSTAAEADVRIAFRAAKRAIEQGDEELAQKLLKLMERSARLANDPELEELAEEIERLLKSSSS
B34: il10ra_site1_sap_19_mot_HHH_b2_06480_af2_000000075_0001_1_18_H_._HHH_b2_06039_0001_0000200014_0000002_0_0001 (protein)
chain: SSSSDEEEEELYRLIARLARLLIRGDEEKVRELLEELRRLAEELNDEAAEKAVEIIEQALSSSSS
B35: il10ra_site1_normal_mot_HHH_b1_05083_af2_000000148_0001_42_57_H_._HHH_b2_07916_af2_0001_0000200027_0000001_0_af2pred_0001 (protein)
chain: SSSSSEEQEELIELLRRLAELVREGDEEEVQKLAEEAERLAKELNNELIEVQLEFILKTLRSSSS
B36: il10ra_site1_normal_mot_6bb093d23f5042b6c551c363657da53b_0001_1_000000153_0001_51_65_H_._HHH_b2_00812_af2_0001_0000900073_0000001_0 (protein)
chain: SSSSSEEEAEKLFEEAEEALKRGDLEEAIELLQKLSRLVVKLGDEELTRLVFELAKLIRELSSSS
B37: il10ra_site1_normal_mot_HHH_b1_06994_000000193_0001_40_55_H_._HHH_b1_03771_af2_0001_0000300015_0000001_0 (protein)
chain: SSSSDQEEELLRAAVRLIEQALENGDPRAARFLIISAKILAKELGDEETLEELEKLEEEVDSSSS

Target: il10ra, Q13651
Test: yeast display titration

Apparent Kd, inactive:
B1 no binding seen, B2 no binding seen, B3 no binding seen, B4 no binding seen, B5 no binding seen, B6 no binding seen, B7 no binding seen, B8 no binding seen, B9 no binding seen, B10 no binding seen, B11 no binding seen, B12 no binding seen, B13 no binding seen, B14 no binding seen, B15 no binding seen, B16 no binding seen, B17 no binding seen, B18 no binding seen, B19 no binding seen, B20 no binding seen, B21 no binding seen, B22 no binding seen, B23 no binding seen, B24 no binding seen, B25 no binding seen, B26 no binding seen, B27 no binding seen, B28 no binding seen, B29 no binding seen, B30 no binding seen, B31 > 93.4 nM, B32 no binding seen, B33 no binding seen, B34 no binding seen, B35 no binding seen, B36 no binding seen, B37 no binding seen
